# Percent effect of library compounds

Toxoplasma: 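Assay of Toxoplasma gondii numbers, read through their beta-galactosidase reporter with a colour substrate. Concentration: 10 µM. Higher reads as fewer parasites (inferred from which compounds were picked for retests). Size under these conditions: about 67,000 compounds, about 260 of them at 50% or above in at least one test.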
T. brucei: 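Whole-parasite assay of Trypanosoma brucei over 72 hours; the read-out is not stated. Tested at 30 µM. Higher reads as stronger inhibition (inferred: compounds with an IC50 in retests scored well above the rest). Values scatter widely below zero; nearly all retest evidence comes from the higher of the two concentrations used. Size under these conditions: about 64,000 compounds, about 940 of them at 50% or above in at least one test.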

The filed quantity is “Percent Effect” (%). The controls that fix the scale are not given in the record; negative values are as filed. This is an unselected part of the compounds tested.

For Cn1nc(Cn2cccn2)c2c1CN(C1CCOC1)C2.O=C(O)C(F)(F)F (centres unmarked) the result was Toxoplasma: -1.764%; T. brucei: -9.498%.
For COc1ccc(-c2c(C)nn3c(=N)c(C#N)n[nH]c23)cc1 the result was T. brucei: 7.822%.
For O=C(CN1CCS(=O)(=O)CC1)NC1CCOc2ccccc21 (centres unmarked) the result was Toxoplasma: 8.952%; T. brucei: -4.823%.
For CCOC(=O)c1sc(NC(=O)C(C)C)c(C#N)c1C the result was Toxoplasma: 29.81%; T. brucei: 1.585%.
For O=C(O)C(F)(F)F.[H][C@]12CN(CCc3ccccc3)C[C@@]1([H])S(=O)(=O)CC[C@@H]2C(=O)N1CCCC1 the result was Toxoplasma: -3.22%; T. brucei: -34.42%.
For FC(F)(F)c1nc(NC2CCCC2)c2ccccc2n1 the result was Toxoplasma: 0.5515%; T. brucei: -2.103%.
For CS(=O)(=O)N1CCCCCC1C1CCN(Cc2nc(C3CC3)no2)CC1 (centres unmarked) the result was Toxoplasma: -2.544%; T. brucei: -10.56%.
For Cn1c(C(=O)N2CCc3[nH]cnc3C2C(=O)O)ccc1-c1ccccc1 (centres unmarked) the result was Toxoplasma: 6.895%; T. brucei: 7.868%.
For O=C(CCCn1cncn1)NC1(c2ccccc2)CCC1 the result was Toxoplasma: 13.91%; T. brucei: 23.26%.
For COCc1ncc(CN2CCC3(CCNC(=O)CC3)CC2)cn1 the result was Toxoplasma: -58.24%; T. brucei: -27.94%.
For Cc1cnccc1-c1cc(NCCO)nc2[nH]ccc12 the result was Toxoplasma: -3.496%; T. brucei: -32%.
For COCC(C)(O)CNC(=O)c1cc(-c2cc(OC)ccc2OC)nn1C (centres unmarked) the result was Toxoplasma: -0.06892%; T. brucei: -5.272%.
For N#CC1C(=O)Nc2c(cnn2C2CCCC2)C12CCCCC2 (centres unmarked) the result was Toxoplasma: 2.041%; T. brucei: -19.93%.
For COCCOc1ccc(NC(=O)N(CC2CCOC2)C2CC2)cn1 (centres unmarked) the result was Toxoplasma: 4.327%; T. brucei: 11.62%.
For O=C(c1cccs1)N1CCC(O)(CN2CCc3ccccc3C2)C1 (centres unmarked) the result was Toxoplasma: -3.267%; T. brucei: 3.886%.
For FC(F)(F)c1cc(NCCCn2cccn2)nc(-c2cccnc2)n1 the result was Toxoplasma: -2.299%; T. brucei: 7.656%.
For CC(C)n1cnc2c1C(C(=O)N1CCCC1)N(CC1CC1)CC2.O=C(O)C(F)(F)F (centres unmarked) the result was Toxoplasma: 3.586%; T. brucei: -25.97%.
For Cc1cccc(CN2CCC3(CCC(C(=O)N(C)C)O3)CC2)n1 (centres unmarked) the result was Toxoplasma: -8.839%; T. brucei: 8.617%.
For Cc1cc(C)n(CC2CCCN2C(=O)c2cc[nH]n2)n1 (centres unmarked) the result was Toxoplasma: 1.294%; T. brucei: 21.55%.
For Cc1ccccc1[C@@H]1CN(C(=O)c2ccc3[nH]nnc3c2)C[C@H]1C(=O)O the result was Toxoplasma: 5.235%; T. brucei: -7.262%.
For CC(C)N1CCOC(c2ccnc(N(C)C)n2)C1 (centres unmarked) the result was Toxoplasma: -16.48%; T. brucei: 5.086%.
For [H][C@@]12COC[C@]1(c1nnc(C(C)C)o1)CN(C(=O)c1cc(C)no1)C2 the result was Toxoplasma: 0.7836%; T. brucei: -40.13%.
For O=C1CCC2(CCOC2)CN1Cc1nncn1CCc1ccccc1 (centres unmarked) the result was Toxoplasma: 7.546%; T. brucei: -75.03%.
For CN1CCC(CCNC(=O)N2CCN(Cc3ccon3)CC2)CC1 the result was Toxoplasma: 6.977%; T. brucei: 23.71%.
For O=C(Nc1ccccc1)N1CCC2(CC(=O)N(c3ccsc3)C2)C1 (centres unmarked) the result was Toxoplasma: -14.91%; T. brucei: -24.15%.
For CC(C)[C@H]1CN(Cc2ccccn2)C[C@@H]1NC(=O)CC1CCC1 the result was Toxoplasma: 9.762%; T. brucei: -18.35%.
For CCOC1CC2(CCN(C(=O)Cc3ccccn3)CC2)C1.O=C(O)C(F)(F)F the result was Toxoplasma: 8.029%; T. brucei: -33.49%.
For CC(C)(C)c1cc(C[C@H]2CNCC[C@H]2CC(=O)Nc2ccccc2)no1 the result was Toxoplasma: 7.635%; T. brucei: 3.912%.
For Cc1cc(C)n(CC2CCCN2Cc2c(C)noc2C)n1 (centres unmarked) the result was Toxoplasma: 0.2872%; T. brucei: 3.111%.
For CN(C(=O)c1ccccn1)c1nnc(C2CCOC2)s1 (centres unmarked) the result was Toxoplasma: 0.185%; T. brucei: -14.58%.
For CN(Cc1cccc(F)c1)C(=O)CS(=O)(=O)Cc1ccc(Cl)c(Cl)c1 the result was Toxoplasma: 0.3474%; T. brucei: 45.42%.
For COc1ccccc1OCc1cc(C(=O)N2CCCCCC2CO)n[nH]1 (centres unmarked) the result was Toxoplasma: 5.172%; T. brucei: -15.5%.
For Cc1c[nH]nc1C1CCCCN1C(=O)Cn1cc(Cl)cn1 (centres unmarked) the result was Toxoplasma: -12.47%; T. brucei: -13.85%.

For reference, 2 entries once more:

| SMILES | Toxoplasma | T. brucei |
|---|---|---|
| `COCCOc1ccc(NC(=O)N(CC2CCOC2)C2CC2)cn1` (centres unmarked) | 4.327 | 11.62 |
| `O=C(O)C(F)(F)F.[H][C@]12CN(CCc3ccccc3)C[C@@]1([H])S(=O)(=O)CC[C@@H]2C(=O)N1CCCC1` | -3.22 | -34.42 |

From ChEMBL document CHEMBL3988442, “University of Dundee, Small-Polar-MMV Screening Library” (2021).